Results are given in words; binding and its absence hold for the method and conditions named. Binding seen in cells or lysates may run through a third protein. Some binding calls cover weakened binding; strength is not graded here.

Amino acid sequences for entries named in this document (tags omitted). A change or cut given only in a name is not applied to a line headed by its entry. Residues count along the entry.
UniProt P63027: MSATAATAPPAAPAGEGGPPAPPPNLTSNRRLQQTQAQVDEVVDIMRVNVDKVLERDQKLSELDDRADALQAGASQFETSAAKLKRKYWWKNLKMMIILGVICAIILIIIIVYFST
Syb2-HA Δ1–31: residues 32-116 of P63027
UniProt O88339: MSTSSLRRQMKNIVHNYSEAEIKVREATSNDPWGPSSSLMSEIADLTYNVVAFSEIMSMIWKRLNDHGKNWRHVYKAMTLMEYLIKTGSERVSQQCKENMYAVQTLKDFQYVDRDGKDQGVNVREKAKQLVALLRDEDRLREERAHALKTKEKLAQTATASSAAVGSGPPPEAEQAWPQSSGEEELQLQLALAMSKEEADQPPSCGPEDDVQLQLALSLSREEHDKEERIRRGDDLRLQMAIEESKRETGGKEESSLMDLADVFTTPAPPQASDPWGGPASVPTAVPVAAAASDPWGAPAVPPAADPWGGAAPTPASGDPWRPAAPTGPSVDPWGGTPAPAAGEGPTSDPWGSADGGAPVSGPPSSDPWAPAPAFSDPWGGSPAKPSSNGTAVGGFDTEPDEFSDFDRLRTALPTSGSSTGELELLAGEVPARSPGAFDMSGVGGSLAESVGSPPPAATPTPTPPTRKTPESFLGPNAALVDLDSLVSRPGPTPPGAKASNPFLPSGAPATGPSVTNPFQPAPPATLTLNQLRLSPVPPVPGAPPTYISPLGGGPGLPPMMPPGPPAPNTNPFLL

Assay [1] addresses HA-tagged full-length Syb2 (human) (UniProt P63027). In words: co-IP; HeLa cells co-expressing FLAG-tagged epsin 1 and HA-tagged Syb2 constructs; lysis in 150 mM NaCl, 0.1% SDS, 0.5% Triton X-100, 10 mM EDTA, 20 mM Hepes pH 7.4; anti-HA agarose beads 1 hour at 4°C; anti-FLAG immunoblot. In general terms: In western blotting, separated proteins are transferred to a membrane and probed.

For another assay, the target named is Syb2-HA Δ1–31 (human) (UniProt P63027). Described as above.

With “FLAG-tagged full-length epsin 1 (from UniProt O88339 1-575)”, the binding result (in assay [1]; in the assay with Syb2-HA Δ1–31 (human)) was “binds” in each case.

The values above are taken from article PMC4161027.
